Test results from PubChem BioAssay AID1347426 (Functional Genomics Laboratory (NCATS/FGL), 2020).
About 1,400 (4.5%) of roughly 31,000 sequences were called active.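 Rule for the calls: active = median seed-adjusted z-score above 1 or below -1; inactive = the rest.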 The list shows a part of the results.

assay: Novel Modifiers of Survival Motor Neuron (SMN) Protein: Gene Identification via Genome-wide siRNA Screen; conditions: HEK293T SMN2-luciferase reporter, siRNA knockdown, 72 h; actives lie on both sides;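 note: luminescence tracks full-length SMN protein made from the SMN2 reporter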
In short: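 HEK293T cells stably carrying an SMN2 promoter/splicing cassette–luciferase reporter were reverse-transfected with 1 pmol siRNA per well (druggable-genome library, 3 siRNAs per gene) and grown 72 h at 37 °C. Luminescence, normalized to negative-control siRNA and log10-transformed, was scored as MAD.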

Sequence | median seed-adjusted z-score
GAGCUGCCCUGAGAAAGCATT against ZFP42 | inactive: -0.537
GAUGAUGAAUAGUAGUAUUTT against DLG1 | inactive: 0.0642
CGAAAUCAUUUUGCCGAGATT against KIF4A | inactive: -0.156
CGUGUACCUCAAGACCUAUTT against HIPK3 | inactive: -0.00424
GCACAUUGCUGAUUACCUATT against SLC27A2 | inactive: -0.647
GGCUCAACAUUGAAAUGCATT against TLE2 | inactive: 0.00566
AGCCCAUCACAAAACAAGATT against LILRA1 | inactive: -0.231
CCAUGCUUGCUGUUCAUUUTT against SELI | inactive: 0
UGAUGGAGCUUAUUGUCAATT against NEUROG2 | inactive: -0.366
CCAAGAAGCUUUACAUCCATT against MAOA | inactive: 0.665
GGAAGGAUUUAGAAGCCUATT against LIN28B | inactive: 0.407
GGUGGUACAAGAGAACGAATT against JARID2 | inactive: 0.115
GGAAGACCUUGUUCCGUAUTT against COG8 | inactive: 0.0438
CCAGCGAUAUGUUCAACUATT against SPINT2 | inactive: 0.00974
CUAACUACCCAGACCCUUATT against MFRP | inactive: -0.209
GCUAUUGAAAGUACACCUATT against NARG1 | active: -1.02
AGCUAAAUCAAGGACCUCATT against DLX4 | inactive: -0.0473
GGCCUGGGAAGUGAACAAATT against FAAH | inactive: 0.373
CGACCGCUACUAUUAUGAATT against TSHZ1 | inactive: 0.526
AAAAGAGUAUCUUUGUUUUTT against NDUFB6 | inactive: -0.357
CCCUAAUAAGAUAAGGAAATT against RPP38 | inactive: 0.07
GUUAUUAUCUGCAUCUUUATT against NMUR1 | inactive: -0.265
GGAAGUACCUGGAACUGUATT against ADAM33 | inactive: -0.038

Sequence | median seed-adjusted z-score
GGAUCUGUCUGAUCGAUUUTT against RBBP8 | inactive: 0.323
GAAGAUUUCUAACGACCCATT against OSGEP | inactive: 0.0178
GGAUCGGGUUUACUCAGAATT against ACTR6 | inactive: 0.189
GAGGCUACAAGGUCCGUUATT against FGFR1 | inactive: -0.562
GCAAGUUGGAUGUCGGGAATT against BCAP31 | inactive: 0.277
GCAUGAACGCGGUCAUGAUTT against RAB40C | inactive: -0.161
CACUUAAACCACCACCUGATT against DNAJC5G | inactive: 0.0656
GGAGCGUGAUGAAUCCAGUTT against INPP5D | inactive: 0.0116
GUUCUUUCCUGGUACGAGATT against SOCS7 | inactive: 0.179
GGCUCAAAGUCCAGCUGAATT against BRUNOL5 | inactive: 0.333
GCUGAUAUGUUUAGUUCAATT against MAP3K7IP3 | inactive: 0.267
CCAUGUCUCUUUUCGGGAATT against IL1RL2 | inactive: -0.555
AGAUUACUCAGAGAUUAUATT against PDCD2 | inactive: -0.232
GGAUAACUUCUCCUUGUCATT against PRM3 | inactive: 0.249
CCUCAACAAUGGAAGGUUUTT against ACADVL | inactive: -0.476
GGUGAGAUGUUAGAUAACATT against STX3 | inactive: 0.686
GGAAAGCAAACGAAUCCAATT against TCEB3B | inactive: 0.0434
GCUCCUCUCUUAGAUCUAATT against PHF7 | inactive: 0.425
CCACUCAACUUGGCUCACATT against DTNA | inactive: 0
GCACUUACAGAGUAUAUCATT against TESK2 | inactive: 0
CAUUCGAUCAGAGAGCAUATT against ATG16L1 | inactive: -0.187
GUGUCGCUACAGAUUCAAATT against ZSCAN20 | inactive: -0.099
GGAUUGAAGGUACCAAGGATT against ATP13A1 | inactive: 0.488

A second format for part of the listing above.
Sequence	median seed-adjusted z-score
CACUUAAACCACCACCUGATT against DNAJC5G	inactive: 0.0656
GGAGCGUGAUGAAUCCAGUTT against INPP5D	inactive: 0.0116
GUUCUUUCCUGGUACGAGATT against SOCS7	inactive: 0.179

(cont.)

Sequence | median seed-adjusted z-score
GGUCGAAUCUGGAAUGGGATT against KCNK15 | inactive: -0.218
GGAUAUCGAUGAGUGCAGATT against NOTCH4 | inactive: -0.384
GCUUAUUGGUUCUCCGUUATT against ITGA1 | inactive: 0.0281
CAGUGUCACAGGUAUCCAATT against PBX3 | inactive: 0.847
GCGAAACCAGGUUCACAGATT against TRPC4AP | inactive: 0.106
GUGUUGUUGGAAUAACAUATT against USP31 | inactive: -0.755
GCAUCUCAGCAGUAGGGAATT against IPO5 | inactive: -0.299
GGGCUAGAUCUGUAUCUUATT against TSC22D3 | inactive: 0.0129
UCAAUUUGGUUGUUGCGAATT against UGT1A10 | inactive: 0.286
CGUUUUUCGUCUCCAUCAUTT against A4GALT | inactive: -0.286
GCCUGUCAAGGAAAGUACATT against ALDOA | inactive: -0.258
GACCUAUAGCUACUGGAUATT against IFT88 | inactive: 0.189
GCAGUGACAUCUACAGGCATT against MEGF9 | inactive: -0.0893
GGAAAACAAGUGGUCGUUATT against COX7C | inactive: -0.461
GGAUGGAAGAUACAUAACATT against PREX2 | inactive: -0.0625
CCUGUUACAUGUAAUAAGATT against RBM34 | inactive: 0
GCACCUCGAGGACAGAACATT against AMACR | inactive: -0.591
CUAUGUUUCUUGACUCGAATT against CENTB2 | inactive: 0
GGCACUCUCUAUUCAGAAATT against NAPG | inactive: 0.0128
CCAAGCAAAUAGUAGAAGATT against CYLC1 | inactive: 0.177
GAGACGAGGAGGAAACUUUTT against DDX27 | inactive: -0.131
CGGAGUACUUGGAAGCCUATT against CACNB1 | inactive: 0.225
